# Test results: PubChem BioAssay AID590 (National Center for Advancing Translational Sciences (NCATS), 2007)
# The campaign covered roughly 59,000 compounds. About 6,500 (11%) were called active. Inconclusive means that the source gave no clear call. Such entries were picked first, then a sample of the others. Rule as the data show it: active = max dye-equivalent concentration above about 10 nM; inconclusive = mostly about 1.1 nM to 9.6 nM; inactive = weaker than that.
# Test: qHTS Assay for Spectroscopic Profiling in A350 Spectral Region
# Conditions: Compound autofluorescence, 340/450 nm, Alexa 350 dye-equivalents; hits give high values
row,Compound,max dye-equivalent concentration
1,CCOC(=O)N1CCN(/C=C(\C#N)c2nc3ccccc3s2)CC1,inconclusive: 1.5 nM
2,COc1cc2c(cc1OC)C(C(=O)O)C(c1cc(Br)c(O)c(OC)c1)N(C)C2=O (centres undefined),inactive
3,CN(C)CCNc1oc(COc2ccc(-c3ccccc3)cc2)nc1C#N,inconclusive: 1.5 nM
4,Cc1ccc2[nH]c(=O)c(C(c3nnnn3C3CCCC3)N(Cc3cccnc3)Cc3ccco3)cc2c1 (centres undefined),inconclusive: 7.8 nM
5,Cn1c(=O)n(CCc2ccccc2)c(=O)c2c1nc1n2CCCN1c1ccccc1,inconclusive: 1.7 nM
6,CN1CCN(S(=O)(=O)c2ccc(NC(=O)Cc3cccs3)cc2)CC1,inactive
7,O=c1c2ccccc2oc2nc(C3CCCCC3)n(Cc3ccco3)c(=O)c12,inconclusive: 1.3 nM
8,O=C(CSc1nnc2c(Cl)cc(Cl)cn12)N1CCN(S(=O)(=O)c2ccccc2)CC1,inconclusive: 1.7 nM
9,CCN1CCN(C(=O)c2ccc3c(=O)n(CCC4=CCCCC4)c(=O)[nH]c3c2)CC1,inconclusive: 6.1 nM
10,O=C(CSc1nnc(Cc2cccs2)n1-c1ccccc1)NC1CCCCC1,inconclusive: 6.5 nM
11,O=C(CSC1=NCCS1)N1CCOCC1,inactive
12,CC(C)Oc1ccc(C2C(C(=O)c3ccco3)=C(O)C(=O)N2Cc2cccnc2)cc1 (centres undefined),inconclusive: 1.1 nM
13,CCC(=O)Nc1c(C#N)c2nc3ccccc3nc2n1C1CCCCC1,active: 200 nM
14,Clc1ccc(CSc2nnc([C@@H]3CCCN3)o2)cc1,inconclusive: 1.4 nM
15,O=C(COc1cccc(C(F)(F)F)c1)NCCCN1CCCC1=O,inconclusive: 3.3 nM
16,O=C(COc1ncnc2ccccc12)c1ccc2c(c1)OCCO2,inconclusive: 4.4 nM
17,CCNC(=O)c1cc2c(=O)n3cccc(C)c3nc2n1C,active: 220 nM
18,CC(C(=O)O)N1C(=O)c2cccc3cccc1c23 (centres undefined),active: 14 nM
19,COc1ccc(-n2c(=O)c(C)nc3cnc(Nc4cccc(OC)c4)nc32)cc1,inactive
20,CCNc1ncc2nc(-c3cc(F)cc(F)c3)c(=O)n(Cc3ccc(F)cc3)c2n1,active: 21 nM
21,N#CC1=C(N)N(c2ccccc2)C2=C(C(=O)CCC2)C1c1cccs1 (centres undefined),active: 14 nM
22,COc1cccc(Cn2c(=O)c(C)nc3cnc(N4CCN(C)CC4)nc32)c1,inactive
23,CCN(CC)S(=O)(=O)c1cccc(C(=O)NC2CCCCC2)c1,inconclusive: 1.1 nM
24,Cc1ccc(OCCN2CCN(C(=O)CCC(=O)Nc3nnc(C)s3)CC2)cc1,inactive

row,Compound,max dye-equivalent concentration
1,COC(=O)c1ccccc1OC(=O)c1ccc(Br)o1,inactive
2,COc1cc(OC)c(OC)cc1CN(C)CCc1ccccn1,inactive
3,Cc1ccc(C)c(NC(=O)c2ccccn2)c1,inactive
4,O=c1c2sc3nc(N4CCOCC4)c4c(c3c2ncn1Cc1ccco1)CCCC4,inconclusive: 5.2 nM
5,COc1ccccc1-c1cc(C(F)(F)F)nc(N2CCN(c3ccccc3)CC2)n1,inconclusive: 2.9 nM
6,CCOc1cccc(C(=O)Nc2ccccc2OC(F)F)c1,inconclusive: 1.6 nM
7,CCn1c(C)nc2cc(C(=O)OCCC(F)(F)F)ccc21,inactive
8,Cc1noc(C)c1C(=O)N1CCC[C@@]2(CCN(C(=O)NC(C)C)C2)C1,inactive
9,Cc1c(C)c2cc(Cl)c(O)c(CN(C)C)c2oc1=O,active: 19000 nM
10,CC(C)C(=O)Nc1cccc(C(=O)NCc2ccc3c(c2)OCO3)c1,inconclusive: 1.4 nM
11,COc1ccc2c(c1)c(C(=O)OCCN(C)C)c(C)n2C,inactive
12,Cc1nn(-c2ccccc2)c2[nH]c(=O)c(CNCCN3CCOCC3)cc12,inconclusive: 9.5 nM
13,CCOC(=O)C1CCCN(C(=O)c2ccccc2SCCOC)C1 (centres undefined),active: 12 nM
14,Cc1cc(C)cc(OCc2nnc(SCC(=O)c3ccccc3)o2)c1,inconclusive: 1.2 nM
15,CCOc1ccc2nc(-c3ccccc3)[nH]c2c1,active: 14 nM
16,Cc1nnc(SCC(=O)NC(C)(C)C)n1CCc1ccccc1,inconclusive: 1.9 nM
17,CCCc1cc(=O)n2[nH]c(C)cc2n1,inactive
18,Cc1cc(C)nc(-n2nc(C)cc2Nc2ccccc2)n1,inactive
19,CCc1ccc2oc(=O)cc(CN3CCN(CCO)CC3)c2c1,inconclusive: 5.5 nM
20,CCN(C(=O)CN1CCN(c2ccc(OC)cc2)CC1)c1c(N)n(Cc2ccccc2)c(=O)[nH]c1=O,active: 13 nM
21,Cc1ccccc1-c1cc(N(C)C)ncn1,inactive
22,Cc1ccccc1-c1nc(CN2CCC(C(=O)NCCCN3CCOCC3)CC2)c(C)o1,inconclusive: 1.1 nM
23,O=c1c(-c2ccc(Cl)cc2)nc2cnc(N3CCOCC3)nc2n1C1CC1,active: 10 nM
24,COc1cccc(C(=O)c2sc(NC(C)C)nc2N)c1,inconclusive: 2.5 nM

row,Compound,max dye-equivalent concentration
1,Cc1[nH]c2ccc(F)cc2c(=O)c1SC(F)(F)C(F)F,inactive
2,Cc1csc(NC(=O)c2c(O)c3cccc4c3n(c2=O)CCC4)n1,inactive
3,COCCCNC(=O)C1CCN(C(=O)c2cc3sccc3n2Cc2ccc(F)cc2)CC1,inconclusive: 6.4 nM
4,CCOC(=O)C1=C(C)NC2=C(C(=O)CCC2)C1c1cccnc1 (centres undefined),active: 940 nM
5,O=C(NCCN1CCCCC1)c1ccc(=O)oc1,active: 85 nM
6,O=C(CN1CCOCC1)OCCCC1CCCCC1,active: 45 nM
7,Cc1ccc(S(=O)(=O)N(CC(=O)NCc2ccncc2)C2CCCCC2)cc1,inactive
8,CCSc1nnc(Nc2ccccc2)s1,inconclusive: 1.5 nM
9,Cn1c(=O)c2c3c(sc2n2c(SCC(=O)c4ccccc4)nnc12)COC(C)(C)C3,inactive
10,CCOc1cc2[nH]c(=O)n(CCCN3CCCC3=O)c(=O)c2cc1OCC,inconclusive: 1.2 nM
11,CC1(C)CC(=O)C2=C(C1)N=C1SCCC(=O)N1C2c1ccccc1 (centres undefined),active: 13 nM
12,O=C(CN1CCC(O)(c2ccc3c(c2)OCO3)CC1)OC1CCCCC1,inactive
13,COc1ccc(CC(=O)OCc2cc3ccccc3[nH]c2=O)cc1,inactive
14,Cc1ccc(NC(=O)N2CCC(C(=O)NCc3ccc(F)cc3)CC2)cc1,inactive
15,Nc1cc2c(nc3c4ccccc4c(N)cc3[n+]2-c2cccc3ccccc23)c2ccccc12 (tested in a mixture with another compound),inconclusive: 2.7 nM
16,CCOc1ccc(-c2nnc3sc(-c4ccccc4OC)nn23)cc1,inactive
17,Cc1ccc(-c2nnn(CC(=O)N(CC(=O)NC(C)C)c3cnc4ccccc4c3)n2)o1,inconclusive: 8.4 nM
18,CCc1ccc2[nH]c(=O)c(CN(CCN3CCCC3)C(=O)NC3CCCCC3)cc2c1,inconclusive: 3.4 nM
19,O=C1CCC(C(=O)Nc2cccc3ccccc23)N1 (centres undefined),inactive
20,c1ccc(OCc2nc3ccccc3s2)cc1,inconclusive: 1.2 nM
21,CCOC(=O)CSc1nnc(-c2ccccc2OC)o1,inconclusive: 1.2 nM
22,Cc1ccc(C(C)C)cc1C(=O)CC1(O)C(=O)N(C)c2ccccc21 (centres undefined),inconclusive: 1.1 nM
23,COC(=O)c1c(NC(=O)CN2CCN(c3ccccc3OC)CC2)c2c(C)cccc2n1C,inconclusive: 6.3 nM
24,CCCc1oc2c(c(=O)c1CC)C(=O)CC(C)(C)C2,inconclusive: 1.3 nM

# At a glance, 4 of the compounds above.
row,Compound,max dye-equivalent concentration
2,Cc1csc(NC(=O)c2c(O)c3cccc4c3n(c2=O)CCC4)n1,inactive
3,COCCCNC(=O)C1CCN(C(=O)c2cc3sccc3n2Cc2ccc(F)cc2)CC1,inconclusive: 6.4 nM
4,CCOC(=O)C1=C(C)NC2=C(C(=O)CCC2)C1c1cccnc1 (centres undefined),active: 940 nM
5,O=C(NCCN1CCCCC1)c1ccc(=O)oc1,active: 85 nM

# Remaining list, next part

row,Compound,max dye-equivalent concentration
1,COc1ccc(-c2oc3ncn(CCN4CCOCC4)c(=N)c3c2-c2ccc(OC)cc2)cc1,active: 19 nM
2,C[N+]1(CCNC(=O)/C=N/O)CCCCC1,inconclusive: 3 nM
3,c1ccc(CC2CCN(C(c3cccs3)c3nnnn3C3CCCC3)CC2)cc1 (centres undefined),inconclusive: 7.4 nM
4,CN(C)c1ccc(-c2cc(NCc3ccccc3)ncn2)cc1,active: 78 nM
5,C=CCn1c(N)c(C(=O)OC(C)(C)C)c2nc3ccccc3nc21,active: 4000 nM
6,COc1ccc(-n2nc(C(=O)NCC(=O)NCC3CCCO3)c3ccccc3c2=O)cc1 (centres undefined),inconclusive: 4.7 nM
7,O=c1cc(-c2ccc(O)c(O)c2)oc2cc(O)cc(O)c12,inactive
8,COc1cc2[nH]c(=O)n(CCCCCC(=O)NCCCN3CCC(C)CC3)c(=O)c2cc1OC,inconclusive: 1.6 nM
9,Cc1ccc(-c2nc(C#N)c(NCc3ccco3)o2)cc1,inconclusive: 2.2 nM
10,COCC(=O)NC1CCN(C(=O)Nc2ccc(Br)cc2)CC1,inactive
11,O=C(OC[C@@H](O)CO)c1ccccc1Nc1ccnc2cc(Cl)ccc12,inconclusive: 8.7 nM
12,COCCCn1c(SCC(=O)N2CC(=O)Nc3ccccc32)nnc1-c1ccoc1C,inconclusive: 1.7 nM
13,CCCS(=O)(=O)N1CCN(Cc2ccccc2OCC)CC1,inconclusive: 3.5 nM
14,O=S(=O)(c1ccccc1)N(Cc1nc(-c2ccccc2)no1)C1CCCCC1,active: 3400 nM
15,Cc1ccc(S(=O)(=O)N2CCCC2CO)cc1 (centres undefined),inactive
16,O=c1c2[nH]c3ccc(F)cc3c2ncn1CCCn1ccnc1,inconclusive: 1.6 nM
17,O=S(=O)(Nc1cnc2ccccc2c1)N1CCCCCC1,inconclusive: 6.1 nM
18,CC(C)N(CC(=O)O)CC(=O)O,inactive
19,COc1ccccc1N/C(N)=N/c1nc(CSc2ccc(C)cc2)cc(=O)[nH]1,inactive
20,CC(C)c1ccccc1N1CC(C(=O)O)CC1=O (centres undefined),inactive
21,CCC(=O)Nc1ccccc1Oc1ccccc1,inconclusive: 1.9 nM
22,CCC(NC(=O)NCc1cccnc1)(C(F)(F)F)C(F)(F)F,inactive
